Experiment [1] concerns the target T1, GSDMB C-terminal fragment GB92-416 (produced by caspase 3/6/7 processing) (human) (UniProt Q8TAX9).
T1 sequence: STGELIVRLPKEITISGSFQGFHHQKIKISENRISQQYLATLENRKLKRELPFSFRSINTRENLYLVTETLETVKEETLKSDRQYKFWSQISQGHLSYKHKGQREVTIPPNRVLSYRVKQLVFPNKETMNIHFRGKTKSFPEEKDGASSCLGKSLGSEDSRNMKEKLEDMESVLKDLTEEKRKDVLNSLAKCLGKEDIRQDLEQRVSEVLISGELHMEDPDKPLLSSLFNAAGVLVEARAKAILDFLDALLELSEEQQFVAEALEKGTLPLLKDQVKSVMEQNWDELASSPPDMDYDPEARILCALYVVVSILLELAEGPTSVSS
In words: co-IP; HCC1954 control (empty vector), GB and GB92-416 cells after CQ and lapatinib plus CQ treatment; which protein was precipitated is not told in the text shown.

Chains of the proteins cited; added tags and fusions are not shown.
UniProt P51149: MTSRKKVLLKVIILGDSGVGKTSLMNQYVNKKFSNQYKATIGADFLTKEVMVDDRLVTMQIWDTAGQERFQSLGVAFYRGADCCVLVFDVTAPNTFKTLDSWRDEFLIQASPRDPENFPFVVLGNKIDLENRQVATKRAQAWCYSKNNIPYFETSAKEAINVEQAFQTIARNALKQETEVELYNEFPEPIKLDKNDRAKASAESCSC

The target in experiment [2] is T2, myc-tagged full length GSDMB (Gasdermin B) (human) (UniProt Q8TAX9).
T2 sequence: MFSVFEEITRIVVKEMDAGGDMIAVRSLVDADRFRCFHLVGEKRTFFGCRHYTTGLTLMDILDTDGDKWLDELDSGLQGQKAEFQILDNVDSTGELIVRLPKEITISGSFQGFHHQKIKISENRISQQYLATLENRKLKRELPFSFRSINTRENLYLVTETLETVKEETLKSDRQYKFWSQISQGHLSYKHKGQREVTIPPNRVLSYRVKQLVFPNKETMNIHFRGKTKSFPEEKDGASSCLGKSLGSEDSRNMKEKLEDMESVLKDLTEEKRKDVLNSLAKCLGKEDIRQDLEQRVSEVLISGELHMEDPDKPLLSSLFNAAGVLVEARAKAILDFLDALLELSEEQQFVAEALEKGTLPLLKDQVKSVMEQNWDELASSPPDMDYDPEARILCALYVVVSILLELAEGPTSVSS
Described as above.

Results are given in words; binding and its absence hold for the method and conditions named. In cells and extracts the contact can be indirect. Some entries that bind do so weakly or less than the wild type. For some assays here: Tags and fused reporters may be left off the sequences shown.

Turning to “Ras-related protein Rab-7 (Rab7a) (from UniProt P51149 1-207)”, the binding entry was “no binding” in experiment [1] and “binds” in experiment [2].

Values taken from paper PMC9511784.
